Assay [1] concerns the target in-house generated I domain of α11β1 (human) (UniProt Q9UKX5). Put plainly: binding to isolated I domain.
For assay [2] the target is unchanged. Kind of assay: ELISA on the human α11β1 I domain. Background: ELISA stands for enzyme-linked immunosorbent assay.
For assay [3] the target is unchanged. Put plainly: SPR. A general note: Surface plasmon resonance follows binding to a sensor surface in real time, without labels.
Assay [4] shares this target. Put plainly: SPR, single-cycle injections of 33, 100 and 300 nM over the a11b1 I Domain.
Assay [5] has as its target recombinant mouse α11β1 (mouse) (UniProt P61622+P09055). Put plainly: ELISA on recombinant mouse α11β1.
Assay [6] concerns the target recombinant human α11β1 (human) (UniProt Q9UKX5+P05556). Kind of assay: ELISA on recombinant human α11β1.
The target of the next assay is human α1β1 (human) (UniProt P56199+P05556). Kind of assay: off-target counter-screen.
The target in the next assay is human α2β1 (human) (UniProt P17301+P05556). Put plainly: off-target counter-screen. A general note: A counterscreen serves to expose hits that act by an unwanted route or on another target.
Another assay has as its target human α10β1 (human) (UniProt O75578+P05556). Put plainly: off-target counter-screen.
For assay [7], the target named is in-house generated I domain of α11β1 (human) (UniProt Q9UKX5). Kind of assay: ELISA on in-house I domain.

Protein sequences, listed by entry. Tags and fused reporters are not part of them. Lines headed by an entry give the natural chain unless they say otherwise; changes in a name come on top. Residues count along the entry.
UniProt Q9UKX5, residues 159-349: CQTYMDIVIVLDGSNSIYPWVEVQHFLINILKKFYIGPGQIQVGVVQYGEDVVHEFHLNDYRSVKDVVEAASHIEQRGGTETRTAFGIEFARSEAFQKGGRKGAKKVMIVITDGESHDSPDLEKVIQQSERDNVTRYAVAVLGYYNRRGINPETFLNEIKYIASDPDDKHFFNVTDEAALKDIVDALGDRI
UniProt P61622: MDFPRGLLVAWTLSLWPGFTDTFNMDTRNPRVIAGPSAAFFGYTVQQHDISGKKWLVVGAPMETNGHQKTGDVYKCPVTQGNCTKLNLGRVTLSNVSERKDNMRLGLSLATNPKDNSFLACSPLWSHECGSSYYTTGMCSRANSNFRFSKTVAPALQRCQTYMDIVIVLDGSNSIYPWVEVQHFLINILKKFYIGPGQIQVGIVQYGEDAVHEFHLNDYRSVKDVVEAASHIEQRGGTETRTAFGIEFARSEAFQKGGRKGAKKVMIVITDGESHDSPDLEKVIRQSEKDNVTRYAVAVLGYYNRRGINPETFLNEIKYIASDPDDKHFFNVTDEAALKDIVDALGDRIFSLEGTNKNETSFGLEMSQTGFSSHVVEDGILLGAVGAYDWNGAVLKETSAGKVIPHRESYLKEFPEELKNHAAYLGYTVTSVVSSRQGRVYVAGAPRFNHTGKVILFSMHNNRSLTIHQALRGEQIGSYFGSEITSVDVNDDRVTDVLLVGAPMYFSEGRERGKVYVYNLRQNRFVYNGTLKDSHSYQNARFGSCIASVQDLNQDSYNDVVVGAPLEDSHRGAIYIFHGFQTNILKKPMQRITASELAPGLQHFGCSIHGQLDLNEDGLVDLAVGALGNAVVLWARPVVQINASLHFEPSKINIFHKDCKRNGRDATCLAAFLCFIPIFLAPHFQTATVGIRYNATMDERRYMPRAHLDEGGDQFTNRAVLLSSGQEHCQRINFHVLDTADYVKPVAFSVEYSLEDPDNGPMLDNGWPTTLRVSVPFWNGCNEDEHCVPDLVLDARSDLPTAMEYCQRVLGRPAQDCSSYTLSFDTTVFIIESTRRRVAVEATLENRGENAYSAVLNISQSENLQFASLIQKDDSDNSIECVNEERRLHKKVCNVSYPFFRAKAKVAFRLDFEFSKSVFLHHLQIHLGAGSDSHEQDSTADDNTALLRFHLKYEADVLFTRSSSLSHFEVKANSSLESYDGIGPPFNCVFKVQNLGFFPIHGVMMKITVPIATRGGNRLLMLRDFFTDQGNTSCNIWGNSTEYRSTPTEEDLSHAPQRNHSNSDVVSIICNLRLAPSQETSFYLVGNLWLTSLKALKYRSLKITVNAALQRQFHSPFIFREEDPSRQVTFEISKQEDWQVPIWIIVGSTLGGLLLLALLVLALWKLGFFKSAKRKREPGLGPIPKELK
UniProt P09055: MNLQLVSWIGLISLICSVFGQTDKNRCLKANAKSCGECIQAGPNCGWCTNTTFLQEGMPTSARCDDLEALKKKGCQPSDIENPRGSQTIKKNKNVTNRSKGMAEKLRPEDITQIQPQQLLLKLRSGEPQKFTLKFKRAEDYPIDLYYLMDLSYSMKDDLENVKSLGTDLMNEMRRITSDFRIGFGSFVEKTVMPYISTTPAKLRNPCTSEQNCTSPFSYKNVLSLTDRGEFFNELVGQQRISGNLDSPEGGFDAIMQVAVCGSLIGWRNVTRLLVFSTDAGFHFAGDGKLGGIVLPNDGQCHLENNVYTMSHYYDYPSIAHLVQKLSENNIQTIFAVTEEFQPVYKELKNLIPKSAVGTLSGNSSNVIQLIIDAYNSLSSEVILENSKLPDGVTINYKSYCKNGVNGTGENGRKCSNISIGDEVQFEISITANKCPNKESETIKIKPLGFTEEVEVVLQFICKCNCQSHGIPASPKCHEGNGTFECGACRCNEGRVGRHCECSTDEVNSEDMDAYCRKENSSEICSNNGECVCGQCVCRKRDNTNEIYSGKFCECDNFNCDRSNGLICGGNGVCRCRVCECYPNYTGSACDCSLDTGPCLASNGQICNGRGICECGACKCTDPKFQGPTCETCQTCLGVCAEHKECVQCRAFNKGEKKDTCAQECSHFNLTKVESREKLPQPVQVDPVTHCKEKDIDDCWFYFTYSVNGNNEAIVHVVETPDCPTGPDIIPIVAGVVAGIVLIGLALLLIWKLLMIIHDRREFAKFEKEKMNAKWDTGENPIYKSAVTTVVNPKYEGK
UniProt P05556: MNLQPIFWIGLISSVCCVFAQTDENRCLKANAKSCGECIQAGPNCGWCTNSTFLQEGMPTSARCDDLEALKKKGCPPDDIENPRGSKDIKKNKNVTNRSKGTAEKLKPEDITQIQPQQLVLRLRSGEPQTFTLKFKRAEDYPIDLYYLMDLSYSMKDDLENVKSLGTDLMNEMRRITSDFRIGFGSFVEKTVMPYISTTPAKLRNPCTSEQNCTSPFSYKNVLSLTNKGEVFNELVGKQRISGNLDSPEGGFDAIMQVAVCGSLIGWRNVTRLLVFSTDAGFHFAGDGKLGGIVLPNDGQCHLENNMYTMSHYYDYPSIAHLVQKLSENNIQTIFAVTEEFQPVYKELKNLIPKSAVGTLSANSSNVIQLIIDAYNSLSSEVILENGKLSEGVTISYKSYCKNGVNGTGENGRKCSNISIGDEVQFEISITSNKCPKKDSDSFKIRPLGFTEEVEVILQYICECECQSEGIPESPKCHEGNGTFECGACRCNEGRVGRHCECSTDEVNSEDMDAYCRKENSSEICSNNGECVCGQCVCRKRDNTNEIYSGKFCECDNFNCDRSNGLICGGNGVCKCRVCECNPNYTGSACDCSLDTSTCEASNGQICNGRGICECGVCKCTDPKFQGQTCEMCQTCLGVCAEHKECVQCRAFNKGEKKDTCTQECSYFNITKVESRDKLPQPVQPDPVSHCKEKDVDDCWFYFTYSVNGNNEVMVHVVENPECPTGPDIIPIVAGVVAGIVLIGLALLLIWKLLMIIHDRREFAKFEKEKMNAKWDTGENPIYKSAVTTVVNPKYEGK
UniProt P56199: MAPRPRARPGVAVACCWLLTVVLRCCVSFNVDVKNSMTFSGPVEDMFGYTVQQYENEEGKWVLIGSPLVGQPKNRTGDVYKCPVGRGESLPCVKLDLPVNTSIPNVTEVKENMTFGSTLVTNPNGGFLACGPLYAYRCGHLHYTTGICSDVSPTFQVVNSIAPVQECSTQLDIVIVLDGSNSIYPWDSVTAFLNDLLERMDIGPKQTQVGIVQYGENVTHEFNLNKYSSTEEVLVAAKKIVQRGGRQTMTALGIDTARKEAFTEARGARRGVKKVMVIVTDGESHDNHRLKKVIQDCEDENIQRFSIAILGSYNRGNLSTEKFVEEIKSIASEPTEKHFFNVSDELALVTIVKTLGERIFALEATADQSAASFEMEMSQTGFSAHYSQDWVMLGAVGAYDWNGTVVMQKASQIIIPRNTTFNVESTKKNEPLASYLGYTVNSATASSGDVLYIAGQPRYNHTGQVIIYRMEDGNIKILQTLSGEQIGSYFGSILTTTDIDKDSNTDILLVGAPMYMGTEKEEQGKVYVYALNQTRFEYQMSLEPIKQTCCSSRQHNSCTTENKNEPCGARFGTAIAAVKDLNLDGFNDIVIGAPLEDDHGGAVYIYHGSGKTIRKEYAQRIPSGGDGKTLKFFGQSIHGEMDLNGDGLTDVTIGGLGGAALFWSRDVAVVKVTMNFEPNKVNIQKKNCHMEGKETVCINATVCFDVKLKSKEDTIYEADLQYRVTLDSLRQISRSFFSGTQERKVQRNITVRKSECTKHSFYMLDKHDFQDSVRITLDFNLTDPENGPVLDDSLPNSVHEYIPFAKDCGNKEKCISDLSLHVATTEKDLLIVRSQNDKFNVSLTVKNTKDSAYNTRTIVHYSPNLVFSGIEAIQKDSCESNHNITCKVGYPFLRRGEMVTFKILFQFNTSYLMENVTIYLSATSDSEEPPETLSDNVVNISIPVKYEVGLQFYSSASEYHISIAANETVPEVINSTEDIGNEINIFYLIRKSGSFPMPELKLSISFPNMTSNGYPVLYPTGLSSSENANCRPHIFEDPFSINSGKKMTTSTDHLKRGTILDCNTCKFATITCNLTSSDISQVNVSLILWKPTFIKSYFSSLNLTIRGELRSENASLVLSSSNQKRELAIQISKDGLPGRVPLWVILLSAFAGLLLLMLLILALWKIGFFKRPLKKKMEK
UniProt P17301: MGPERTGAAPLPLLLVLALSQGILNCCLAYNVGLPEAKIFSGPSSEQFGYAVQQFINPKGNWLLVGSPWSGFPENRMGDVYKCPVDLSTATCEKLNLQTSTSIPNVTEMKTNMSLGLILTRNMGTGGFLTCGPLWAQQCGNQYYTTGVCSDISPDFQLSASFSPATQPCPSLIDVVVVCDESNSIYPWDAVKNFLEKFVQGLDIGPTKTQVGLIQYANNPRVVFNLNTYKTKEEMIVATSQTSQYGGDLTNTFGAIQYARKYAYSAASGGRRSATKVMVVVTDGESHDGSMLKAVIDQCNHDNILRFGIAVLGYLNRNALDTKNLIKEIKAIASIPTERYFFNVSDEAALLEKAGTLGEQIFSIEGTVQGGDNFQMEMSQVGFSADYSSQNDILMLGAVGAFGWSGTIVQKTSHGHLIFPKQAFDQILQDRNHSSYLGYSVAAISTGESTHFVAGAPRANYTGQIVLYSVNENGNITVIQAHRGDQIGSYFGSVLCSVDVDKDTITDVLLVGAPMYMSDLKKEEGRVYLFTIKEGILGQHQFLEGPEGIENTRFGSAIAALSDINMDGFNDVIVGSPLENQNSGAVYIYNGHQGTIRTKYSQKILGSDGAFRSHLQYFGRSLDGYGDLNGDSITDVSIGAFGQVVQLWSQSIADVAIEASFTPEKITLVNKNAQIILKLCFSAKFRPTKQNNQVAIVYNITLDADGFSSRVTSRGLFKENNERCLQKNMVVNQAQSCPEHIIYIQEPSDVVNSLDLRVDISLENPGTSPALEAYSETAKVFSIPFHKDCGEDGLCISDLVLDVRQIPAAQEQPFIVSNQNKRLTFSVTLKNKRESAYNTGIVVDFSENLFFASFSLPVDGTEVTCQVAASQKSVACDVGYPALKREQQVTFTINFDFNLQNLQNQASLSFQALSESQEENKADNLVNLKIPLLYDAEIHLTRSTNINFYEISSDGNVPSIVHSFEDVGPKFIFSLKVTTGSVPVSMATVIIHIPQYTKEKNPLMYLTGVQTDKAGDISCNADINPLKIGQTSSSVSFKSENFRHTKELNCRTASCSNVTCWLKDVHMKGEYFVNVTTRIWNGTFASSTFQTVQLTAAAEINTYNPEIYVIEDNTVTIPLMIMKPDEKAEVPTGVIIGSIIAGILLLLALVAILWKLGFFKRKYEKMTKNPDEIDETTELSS
UniProt O75578: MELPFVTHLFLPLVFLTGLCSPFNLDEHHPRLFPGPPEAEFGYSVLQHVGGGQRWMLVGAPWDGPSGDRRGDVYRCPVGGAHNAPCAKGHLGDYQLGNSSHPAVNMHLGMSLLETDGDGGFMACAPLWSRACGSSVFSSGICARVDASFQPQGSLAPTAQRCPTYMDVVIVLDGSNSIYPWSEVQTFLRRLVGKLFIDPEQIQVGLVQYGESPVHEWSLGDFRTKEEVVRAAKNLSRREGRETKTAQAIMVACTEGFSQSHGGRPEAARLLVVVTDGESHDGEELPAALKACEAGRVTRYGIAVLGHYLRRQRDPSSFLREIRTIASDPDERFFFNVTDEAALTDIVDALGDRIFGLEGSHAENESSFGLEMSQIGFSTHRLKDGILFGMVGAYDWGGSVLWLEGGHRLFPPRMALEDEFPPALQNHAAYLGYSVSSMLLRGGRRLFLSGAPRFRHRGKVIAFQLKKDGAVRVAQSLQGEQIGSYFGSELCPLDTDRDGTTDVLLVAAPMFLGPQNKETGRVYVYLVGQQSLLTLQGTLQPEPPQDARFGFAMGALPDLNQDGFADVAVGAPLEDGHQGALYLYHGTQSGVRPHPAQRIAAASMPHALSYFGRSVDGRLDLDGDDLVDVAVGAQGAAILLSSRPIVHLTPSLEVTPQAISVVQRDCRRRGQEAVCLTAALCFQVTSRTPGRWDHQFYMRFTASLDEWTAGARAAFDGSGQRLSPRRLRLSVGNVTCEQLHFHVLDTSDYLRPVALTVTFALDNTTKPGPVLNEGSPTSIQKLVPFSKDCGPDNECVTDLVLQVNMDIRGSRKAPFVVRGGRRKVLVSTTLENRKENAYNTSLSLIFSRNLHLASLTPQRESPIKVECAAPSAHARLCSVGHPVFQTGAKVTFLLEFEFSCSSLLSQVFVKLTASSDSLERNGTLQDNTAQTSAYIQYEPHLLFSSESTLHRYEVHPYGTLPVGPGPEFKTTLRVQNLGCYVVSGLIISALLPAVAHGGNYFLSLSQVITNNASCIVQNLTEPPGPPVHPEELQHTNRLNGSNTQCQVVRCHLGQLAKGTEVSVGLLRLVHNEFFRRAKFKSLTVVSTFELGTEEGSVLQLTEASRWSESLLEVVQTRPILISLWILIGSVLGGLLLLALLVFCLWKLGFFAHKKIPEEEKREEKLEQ

Where a chain is given by its changes, count along the chain named. No constants are given. Whether binding was seen depends on the method and setting. Some results given as binding are weak or reduced against the parent protein; the word gives no strength.

B1: 10-F23 (antibody, V domains shown)
VH: QVTLKESGPGILQPSQTLSLTCSFSGFSLSTFAMGVGWIRQPSGKGLEWLAHIWWDDDKYYNPALKSRLTISKDTSKNHVFLKIANVDTADTATYYCARMPLTFYFDYWGQGTTLTVSS
VL: DVLLTQTPLSLPVSLGDQASISCRSSQSIVHSNGHTYLEWYLQKPGQSPKLLIYKVSNRFSGVPDRFSGSGSGTDFTLKISRVEAEDLGVYYCFQGSHVPFTFGGGTKLEIK
With B1, the binding entry in assay [1] is “binds”.

B2: 6-A12 (antibody, V domains shown)
VH: B1 VH with S30R, H79Q
VL: B1 VL with L4M, H35N, N58T
For the molecule B2, the binding result in assay [1] is “binds”.

B3: 9-E16 (antibody, V domains shown)
VH: EVQLQQSGPELVKPGASVKISCKASGYTFTDYYMHWVKQKPGQGLEWIGEIYPGSGNPYYNEKFKGKATLTADKSSSSAYMQLSSLTSEDSAVYFCARTSYGRVGTGFAYWGQGTLVTVSA
VL: NFVMTQTPLSLPVSLGDQASISCRSSQSLLHSNGNTYLHWYLQKPGQSPKLLIYKVSNRFSGVPDRFSGSGSGTDFTLKINRVETEDLGIYFCSQSSHVPTFGAGTKLELK
For the molecule B3, the binding result in assay [2] and in assay [1] was “binds” each time.

B4: 10-L15 (antibody, V domains shown)
VH: QVQLQQSGPELVRPGASVKMSCKASGYTFTSYWMHWVKQRPGQGLEWIGMIDPSNSETWLNQKFKDKATLNVDKSSNTAYMQLSSLTSEDSAVYYCARYDGYYDYWGQGTTLTVSS
VL: NIVLTQSPASLAVSLGQRATISCRASESVDSYGNSFMHWYQQKPGQPPKLLIYLASNVESGVPARFSGSGSRTDFTLTIDPVEADDAATYYCQQNNEDPWTFGGGTKLEIK
On to B4, for which the binding entry in assay [1] is listed as “binds”.

B5: 9-G05 (antibody, V domains shown)
VH: EVQLQQSGPELVKPGASVKIPCKASGYTFPDYNMDWVKQSHGKSLEWIGYINPDNGGTIYNQKFKGKATLTVDKSSSTAYMELRSLTSEDTAVYYCARLDSSGYGYYAMDYWGQGTSVTVSS
VL: DIVLTQSPASLAVSLGQRATISCRASESVDNYGISFMHWYQQKPGQPPKLLIYRASNLDSEIPARFSGSGSRTDFTLTIDPVETDDVATYYCQQSYKDPRTFGGGTKLEIK
On to B5, for which the binding result in assay [2], in [3], in [4] and in assay [1] was “binds” each time.

B6: 9-B11 (antibody, V domains shown)
VH: QVQLQQPGAELVRPGTSVKLSCKASGYTFTSYWMHWVQQRPGQGLEWIGVIDPSDSYTNYNQKFKGKATLTVDTSSSSAYMQLSSLTSEDSAVYYCARDDVAMDYWGQGTSVTVSS
VL: DIVVTQSPASLAVSLGQRATISCRASESVDSYGNSFIHWYQQKPGQPPKLLIYRASNLKSGIPARFSGSGSRTDFTLTINPVEADDVATYYCQQSNEDPYTFGGGTKLEIK
With B6, the binding entry in assay [1] was “binds”.

B7: 40G10H11 (antibody, V domains shown)
VH: AVQLVESGGGLVQPGRSLKLSCAASRITFTDYYMAWVRQAPTKGLEWVATISSDGGDTFYRDSVKGRFTISRDNAKSTLYLQMVSLRSEDTATYYCSTDRGAQFGYWGQGTLVTVSS
VL: DIQMTQSPSFLSASVGDRVSINCKASQNVHENLNWYQQKLGEAPKRLIYNTNNLQTGIPSRFSGSGSGADYTLTISSLQPEDFATYFCLQHNAFPYTFGPGTKLELK
For B7, the binding entry (in assay [5]; in [6]; in the assay with human α1β1 (human); in the assay with human α2β1 (human); with human α10β1 (human)) was “binds” in each case.

B8: 79E3E3 (antibody, V domains shown)
VH: QIQLVQSGPEVKKPGESVKISCKASGYTFTDYAMNWVKQAPGNGLKWMGWINTQTGKPTYADDFKQRFVFSLETSARTTYLQINNLNIEDTATYFCTRLGTGNTKGFAYWGQGTLVTVSS
VL: DILINQSPASLTVSAGERVTMSCKSSQSLLYSENNQDYLAWYQQKPGQFPKLLIYGASNRHTGVPDRFTGSGSGTDFTLTISSVQAEDLADYYCEQTYRYPFTFGSGTKLEIK
On to B8, for which the binding entry in assay [7], in [2], in [3], in [4] and in [1] was “binds” each time.

Values taken from US20230050972A1.
